Results taken from patent US20230065079A1, “FATTY ACID DERIVATIVE LABELED WITH POSITRON-EMITTING RADIONUCLIDE” (ASTELLAS PHARMA INC., priority 2020, published 2023).

Assay: PET test using normal cynomolgus monkey (heart contrast PET, SUV in myocardium and bone ROI)
Type: in vivo
Details: MIP PET images 60 and 180 minutes after administration, FIGS. 1A to 1D, result in words
Excerpt: Solutions containing each compound prepared in Examples 1 to 7 and Reference Example 15 ([^18F]FTO) were used to perform a heart contrast PET test using normal cynomolgus monkeys.
For performing non-invasive PET imaging, in a state in which a male cynomolgus monkey was anesthetized with inhalation anesthetic isoflurane, the monkey was held at a supine body position on a PET camera SHR17000 (manufactured by Hamamatsu Photonics K.K.), the solution containing each compound (about 300 MBq) was administered from the lower extremity vein, and continuous imaging was performed for 180 minutes or more after the administration. The PET images were reconstructed by dynamic row-action maximum likelihood algorithm (DRAMA) and average images per each time section which is divided every 20 minutes from 0 minutes to 180 minutes after the administration, are obtained. Then, the region of interest (ROI) was set in the myocardium region or bone (near the spine), and the accumulation (standardized uptake value (SUV)) of each compound was calculated as {radioactivity count in the ROI (MBq/cc)/[dose (MBq)/body weight (g)]}.
The SUV values quantified by setting the ROI for the myocardium and the bone of each compound are shown in Tables 10 and 11 as SUV (myocardium) and SUV (bone). […] A case where the target organ cannot be confirmed in the image and the ROI cannot be set is denoted as n.d. […]

Structure (SMILES)	PET image (heart imaging, accumulation seen in image)
CCCCCCCCC1CC1CC([18F])CCSCCC(=O)O (centres unmarked) [Example 6, 3-{[3-[^18F]fluoro-4-(2-octylcyclopropyl)butyl]sulfanyl}propanoic acid]	excellent heart PET imaging could be performed
O=C(O)CCSCCCC/C=C\CCCCCCCC[18F] [Reference Example 15, 3-{[(5Z)-14-[^18F]fluorotetradec-5-en-1-yl]sulfanyl}propanoic acid, reference compound]	accumulation of [^18F]fluorine is confirmed not only in the heart but also in the bone
